Paper doi:10.1101/102285
These are yes or no findings as the source states them, for the method shown. Binding seen in cells or lysates may run through a third protein. Some binding calls cover weakened binding; strength is not graded here. For some assays here: Sequences can lack the tags named with a protein.

By UniProt entry, the sequences of proteins in these tests, tags left out.
UniProt Q8IWV8: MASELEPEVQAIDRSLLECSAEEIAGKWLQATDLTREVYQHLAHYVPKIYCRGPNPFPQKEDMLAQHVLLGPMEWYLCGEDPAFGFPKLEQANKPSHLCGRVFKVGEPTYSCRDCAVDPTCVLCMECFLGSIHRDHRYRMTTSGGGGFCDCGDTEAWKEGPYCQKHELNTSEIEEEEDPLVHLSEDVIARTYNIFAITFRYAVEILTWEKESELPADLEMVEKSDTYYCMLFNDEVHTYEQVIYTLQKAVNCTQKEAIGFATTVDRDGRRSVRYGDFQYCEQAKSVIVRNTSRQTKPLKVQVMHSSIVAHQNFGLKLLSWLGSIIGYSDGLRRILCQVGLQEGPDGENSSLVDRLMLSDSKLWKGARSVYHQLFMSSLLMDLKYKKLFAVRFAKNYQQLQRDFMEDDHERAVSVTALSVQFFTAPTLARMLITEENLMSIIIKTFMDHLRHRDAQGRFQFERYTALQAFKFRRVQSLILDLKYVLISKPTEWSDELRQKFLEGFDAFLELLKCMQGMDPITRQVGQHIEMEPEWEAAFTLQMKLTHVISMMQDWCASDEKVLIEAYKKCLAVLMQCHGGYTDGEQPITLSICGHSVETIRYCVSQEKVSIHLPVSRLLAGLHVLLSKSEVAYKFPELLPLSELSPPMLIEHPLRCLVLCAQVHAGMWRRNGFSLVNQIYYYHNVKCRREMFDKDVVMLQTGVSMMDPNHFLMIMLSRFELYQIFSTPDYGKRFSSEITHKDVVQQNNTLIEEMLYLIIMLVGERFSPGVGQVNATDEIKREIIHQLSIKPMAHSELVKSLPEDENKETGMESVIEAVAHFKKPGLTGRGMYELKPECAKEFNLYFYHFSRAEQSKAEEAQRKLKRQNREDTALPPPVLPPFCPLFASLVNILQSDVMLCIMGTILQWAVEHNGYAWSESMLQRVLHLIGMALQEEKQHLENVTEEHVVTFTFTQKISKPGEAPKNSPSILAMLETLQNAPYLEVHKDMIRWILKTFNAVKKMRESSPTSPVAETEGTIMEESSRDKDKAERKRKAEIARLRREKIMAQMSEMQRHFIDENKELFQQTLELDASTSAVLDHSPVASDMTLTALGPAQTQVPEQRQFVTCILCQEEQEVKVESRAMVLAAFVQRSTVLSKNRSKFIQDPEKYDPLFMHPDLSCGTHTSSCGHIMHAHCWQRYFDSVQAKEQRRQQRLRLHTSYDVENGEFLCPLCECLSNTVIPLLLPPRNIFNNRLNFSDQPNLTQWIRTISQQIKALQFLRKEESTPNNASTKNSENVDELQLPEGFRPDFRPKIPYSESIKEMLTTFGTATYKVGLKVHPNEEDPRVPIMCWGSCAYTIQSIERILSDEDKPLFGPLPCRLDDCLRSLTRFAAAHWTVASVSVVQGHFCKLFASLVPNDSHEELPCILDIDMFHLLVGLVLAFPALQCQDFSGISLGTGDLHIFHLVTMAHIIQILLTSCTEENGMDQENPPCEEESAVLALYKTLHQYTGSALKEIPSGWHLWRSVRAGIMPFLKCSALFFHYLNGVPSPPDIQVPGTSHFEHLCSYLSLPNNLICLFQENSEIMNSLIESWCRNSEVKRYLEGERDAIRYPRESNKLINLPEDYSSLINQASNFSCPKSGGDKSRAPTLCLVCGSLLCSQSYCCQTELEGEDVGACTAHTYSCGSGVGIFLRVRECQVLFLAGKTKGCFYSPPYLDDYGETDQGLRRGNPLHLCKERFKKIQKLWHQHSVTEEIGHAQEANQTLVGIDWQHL

T1: TEX19.1-YFP (mouse) (UniProt Q99MV2)
T1 sequence: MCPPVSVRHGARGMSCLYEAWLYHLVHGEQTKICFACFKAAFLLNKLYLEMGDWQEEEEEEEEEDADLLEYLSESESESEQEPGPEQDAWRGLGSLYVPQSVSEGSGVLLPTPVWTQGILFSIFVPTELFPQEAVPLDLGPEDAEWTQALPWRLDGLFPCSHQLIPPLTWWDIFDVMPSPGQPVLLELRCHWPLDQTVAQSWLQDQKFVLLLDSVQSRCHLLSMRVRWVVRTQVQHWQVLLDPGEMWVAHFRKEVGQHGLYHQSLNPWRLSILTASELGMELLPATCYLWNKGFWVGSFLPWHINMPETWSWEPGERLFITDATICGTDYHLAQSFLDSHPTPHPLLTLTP


Assays:
[1] = molecular target: T1, TEX19.1-YFP (mouse); experiment: co-IP
[2] = molecular target: Type I N-end rule peptide (…) (Sindbis virus); experiment: pull-down
[3] = molecular target: Type II N-end rule peptide (…) (Sindbis virus); experiment: pull-down
[4] = molecular target: Negative control N-end rule peptide (…) (Sindbis virus); experiment: pull-down
[5] = molecular target: E3 ubiquitin ligase UBR2 (endogenous) (human (endogenous in HEK293/HEK293T)) (UniProt Q8IWV8); experiment: pull-down

binding [5] | Molecule | binding [1] | binding [2] | binding [3] | binding [4]
– | E3 ubiquitin ligase UBR2 (endogenous) (from UniProt Q8IWV8 1-1755) (enzyme) | binds | no binding | binds | no binding
binds | STREP-tagged TEX19.1 (protein, UniProt Q99MV2 1-351) MCPPVSVRHGARGMSCLYEAWLYHLVHGEQTKICFACFKAAFLLNKLYLEMGDWQEEEEEEEEEDADLLEYLSESESESEQEPGPEQDAWRGLGSLYVPQSVSEGSGVLLPTPVWTQGILFSIFVPTELFPQEAVPLDLGPEDAEWTQALPWRLDGLFPCSHQLIPPLTWWDIFDVMPSPGQPVLLELRCHWPLDQTVAQSWLQDQKFVLLLDSVQSRCHLLSMRVRWVVRTQVQHWQVLLDPGEMWVAHFRKEVGQHGLYHQSLNPWRLSILTASELGMELLPATCYLWNKGFWVGSFLPWHINMPETWSWEPGERLFITDATICGTDYHLAQSFLDSHPTPHPLLTLTP | – | – | – | –
